Test results published in patent publication US20080003127A1, “Non-Ferrous Metal Cover Gases” (Honeywell International Inc., priority 2006, published 2008).
Some entries share one result that the patent states for a list of compounds.

Test: Cardiac sensitization test, NOAEL
Format: in vivo
Settings: cardiac sensitization tests

Compound | NOAEL
C=C(F)C(F)(F)F [HFO-1234yf, 1,1,1,2-tetrafluoropropene] | greater than 12 vol. %
FC=CC(F)(F)F [HFO-1234ze, 1,1,1,3-tetrafluoropropene] | greater than 12 vol. %
